Results as given in paper PMC7819943, “Rice protein-binding microarrays: a tool to detect cis-acting elements near promoter regions in rice”.
The list shows a part of the results.

The chains behind the UniProt entries cited, without tags or fusion partners.
UniProt Q0JBA9, entry or part of it: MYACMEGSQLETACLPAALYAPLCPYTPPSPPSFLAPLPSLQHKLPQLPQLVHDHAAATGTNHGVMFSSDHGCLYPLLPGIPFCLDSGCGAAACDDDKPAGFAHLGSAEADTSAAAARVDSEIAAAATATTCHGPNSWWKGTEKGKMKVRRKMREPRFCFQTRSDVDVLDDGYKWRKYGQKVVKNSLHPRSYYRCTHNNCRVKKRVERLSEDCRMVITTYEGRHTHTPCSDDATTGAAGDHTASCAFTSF

molecular target: OsWRKY34 (Oryza sativa, UniProt Q0JBA9 1-250); experiment: protein-binding microarray (RPBM); PBS, 2% BSA, 51.3 ng/ul salmon testes DNA, 50 uM zinc acetate, 200 nM TF, 25 C, 1 h; high values mean tight binding; details: protein: recombinant; tags: N-terminal polyhistidine and DsRed monomer fusion (pET32a); label: CyDye5-dUTP incorporated in the synthesized complementary strand; 3' TTTTT single-stranded linker to array surface; dsDNA, one strand shown
In short: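 Transcription factors were made in E. coli BL21-CodonPlus as N-terminal fusions to a polyhistidine tag and DsRed, then purified on Ni–NTA. After primer extension with Cy5-dUTP and blocking with 2% BSA, a custom Agilent array was exposed for 1 h at 25 °C to 200 nM protein in PBS, 2% BSA, salmon testes DNA and 50 µM zinc acetate. Washed arrays were scanned on an Axon 4000B, and the binding signal is per-feature fluorescence intensity in arbitrary units.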

| Sequence | binding signal |
| --- | --- |
| CCTCAAACTTATGCTTGCCCGTTTCTGTTGCAACAAAACCCGGAGTCACCTAGTGCAG | 11700 fluorescence intensity (a.u.) |
| TAACCTTTACCACACAATATCGTCCATGGACCAAATTATTCGGAGTCACCTAGTGCAG | 8260 fluorescence intensity (a.u.) |
| GGTTTTAATTTGTTTGTTACCGATGGCCGCTAAAAAGGAACGGAGTCACCTAGTGCAG | 11600 fluorescence intensity (a.u.) |
| AATTTACACTACATATATATTTTGCTGTATATACGTCGGTCGGAGTCACCTAGTGCAG | 8260 fluorescence intensity (a.u.) |
| CACTTGGCCAAAATGCTCCACCTTCACACTATGGCTTTACCGGAGTCACCTAGTGCAG | 8140 fluorescence intensity (a.u.) |
| TTGGGTGTTTATATGTTGTAATGTCTGTTCATTACTGTATCGGAGTCACCTAGTGCAG | 8880 fluorescence intensity (a.u.) |
| CTTGCTACTGTGTTTTGTTTTTCTTGGACCACCCAGTTATCGGAGTCACCTAGTGCAG | 14400 fluorescence intensity (a.u.) |
| CGTTCGTGCTGCCACCCGTCCGCCGCGCCGCTCCACGCCACGGAGTCACCTAGTGCAG | 9720 fluorescence intensity (a.u.) |
| CATCCCAAAACACCGAAGTTACCATTTCCCACCCGTTCGACGGAGTCACCTAGTGCAG | 8570 fluorescence intensity (a.u.) |
| GTTTCTCTGGGATTTGTCTGTCTGATGATCTCACTGGATTCGGAGTCACCTAGTGCAG | 9040 fluorescence intensity (a.u.) |
| TGGCATTTTTTTTTTCTTGTGAAAAACCGACGAGAGGAAGCGGAGTCACCTAGTGCAG | 8190 fluorescence intensity (a.u.) |
| TCCTCAGCCTCGACGCCGCCTTCCTCTCCTCCTGCGCCGGCGGAGTCACCTAGTGCAG | 10500 fluorescence intensity (a.u.) |
| CCTGCCGTTTTCTTTTTCTTTTTCTTTCCTTTTCCTTTTTCGGAGTCACCTAGTGCAG | 17000 fluorescence intensity (a.u.) |
| CGCCAACTCAACGCTGAAGCCGCTGCCTCACCATCTCGTCCGGAGTCACCTAGTGCAG | 8780 fluorescence intensity (a.u.) |
| ATCTCGCGTCTCTGGTCGACGGCTCTCTACCAGAATACCCCGGAGTCACCTAGTGCAG | 9480 fluorescence intensity (a.u.) |
| ACTCTTGCCATGTGTCATCGGTTTATAAGAAAAACCCTAACGGAGTCACCTAGTGCAG | 8770 fluorescence intensity (a.u.) |
| ACACCAAGTGACCATTCCATTCCATTCCATTCCTTCTCCCCGGAGTCACCTAGTGCAG | 8410 fluorescence intensity (a.u.) |
| ATTAAACTATCCGCCACGTTGCCCGGCTCACCCACCCACTCGGAGTCACCTAGTGCAG | 8250 fluorescence intensity (a.u.) |
| TTTTTCTTGTGCTCTATCCATCCATGCCATGCCATTCATCCGGAGTCACCTAGTGCAG | 10200 fluorescence intensity (a.u.) |
| TCCACGTCACACGCTTGCACAGCCACACTTCGCCACCGTTCGGAGTCACCTAGTGCAG | 10400 fluorescence intensity (a.u.) |
| CTAGGCTTTCCTCTGTTGCTTGGTTGCATTGCATGCTTCTCGGAGTCACCTAGTGCAG | 9950 fluorescence intensity (a.u.) |

| Sequence | binding signal |
| --- | --- |
| GTCGCACGGCCACTTAACTTCTTCCTCTCGTGTGAATGGTCGGAGTCACCTAGTGCAG | 8680 fluorescence intensity (a.u.) |
| CTTGTGCCGCCGTCCTTGCCCGCTGCTCCTGCCGCCTCCTCGGAGTCACCTAGTGCAG | 9660 fluorescence intensity (a.u.) |
| GTCATTCCTATGTTTTTCCTGTATTTTGCAATCCTCTGTTCGGAGTCACCTAGTGCAG | 13500 fluorescence intensity (a.u.) |
| CTATATTTGCTAGTTTGATTCATGTCCACAGATTTTTATTCGGAGTCACCTAGTGCAG | 8150 fluorescence intensity (a.u.) |
| GAATAAGACGAATGGTCAAATATGTGCTAAAAAGTCAACGCGGAGTCACCTAGTGCAG | 10000 fluorescence intensity (a.u.) |
| CAGTGTAGGGGAGAGAGAGAGAGAGTGGGGTAGAGGGATGCGGAGTCACCTAGTGCAG | 8980 fluorescence intensity (a.u.) |
| GCACTATCAATTCTTCTTGATTCTTCTTTGTATTTGGATTCGGAGTCACCTAGTGCAG | 10000 fluorescence intensity (a.u.) |
| TGCCCGGCTCGGCTACCCCGTCGCCACCGCCGTTCGTTTCCGGAGTCACCTAGTGCAG | 8580 fluorescence intensity (a.u.) |
| GCTTTTTTTTCTACTAAGTTTATTTATGGTTCTTTGTTTTCGGAGTCACCTAGTGCAG | 9420 fluorescence intensity (a.u.) |
| CTTCAGCCTCCGCCACGCAACAATTAAATACGTGCACTCCCGGAGTCACCTAGTGCAG | 10400 fluorescence intensity (a.u.) |
| GGAGGTGGAAAATCTTTGTTTTTTTCCTGGTTACGATCTCCGGAGTCACCTAGTGCAG | 9150 fluorescence intensity (a.u.) |
| GTGTCATGAAGGTATTAAGACTTTTTTTATGTTATCACAGCGGAGTCACCTAGTGCAG | 8120 fluorescence intensity (a.u.) |
| GTATATCATCGTTTTTGTACGTGGTTCAATGTATATTACTCGGAGTCACCTAGTGCAG | 9220 fluorescence intensity (a.u.) |
| ACCGCTTTTCGATAGTGGGCCCACCTGGTTTTGTTTGCGTCGGAGTCACCTAGTGCAG | 10200 fluorescence intensity (a.u.) |
| ATCTTTTTTCTTAGGTTTCACATCTGCCTCTTTTTAAACACGGAGTCACCTAGTGCAG | 10100 fluorescence intensity (a.u.) |
| GTCGGGTTCGGGTACTGTTGATGCTGATCGAGATGGTCCTCGGAGTCACCTAGTGCAG | 8650 fluorescence intensity (a.u.) |
| GCACTCCCATTCACATTCCCACTCGCACTCCCATTCTCATCGGAGTCACCTAGTGCAG | 11700 fluorescence intensity (a.u.) |
| CTTTTTTATCGCTGCGTCCAATCCTAATCCACTATTTATGCGGAGTCACCTAGTGCAG | 8240 fluorescence intensity (a.u.) |
| TTGCCATCACCATCTCCATCTCTCTCTCCTCTCCTATTCTCGGAGTCACCTAGTGCAG | 12900 fluorescence intensity (a.u.) |
| TCCTCTCTCCACTACCAACCTCTCGCGGAGACCCAAACCCCGGAGTCACCTAGTGCAG | 9700 fluorescence intensity (a.u.) |
| AACCAGCTCGTCAATTAATTATTGTGATTACGTTTCATCTCGGAGTCACCTAGTGCAG | 8060 fluorescence intensity (a.u.) |

Part of the list above, with tabs:
Sequence	binding signal
TCCACGTCACACGCTTGCACAGCCACACTTCGCCACCGTTCGGAGTCACCTAGTGCAG	10400 fluorescence intensity (a.u.)
CTAGGCTTTCCTCTGTTGCTTGGTTGCATTGCATGCTTCTCGGAGTCACCTAGTGCAG	9950 fluorescence intensity (a.u.)
